{
  "sequences": {"note": "Protein sequences, listed by entry. Tags and fused reporters are not part of them.", "UniProt I3LHS8": "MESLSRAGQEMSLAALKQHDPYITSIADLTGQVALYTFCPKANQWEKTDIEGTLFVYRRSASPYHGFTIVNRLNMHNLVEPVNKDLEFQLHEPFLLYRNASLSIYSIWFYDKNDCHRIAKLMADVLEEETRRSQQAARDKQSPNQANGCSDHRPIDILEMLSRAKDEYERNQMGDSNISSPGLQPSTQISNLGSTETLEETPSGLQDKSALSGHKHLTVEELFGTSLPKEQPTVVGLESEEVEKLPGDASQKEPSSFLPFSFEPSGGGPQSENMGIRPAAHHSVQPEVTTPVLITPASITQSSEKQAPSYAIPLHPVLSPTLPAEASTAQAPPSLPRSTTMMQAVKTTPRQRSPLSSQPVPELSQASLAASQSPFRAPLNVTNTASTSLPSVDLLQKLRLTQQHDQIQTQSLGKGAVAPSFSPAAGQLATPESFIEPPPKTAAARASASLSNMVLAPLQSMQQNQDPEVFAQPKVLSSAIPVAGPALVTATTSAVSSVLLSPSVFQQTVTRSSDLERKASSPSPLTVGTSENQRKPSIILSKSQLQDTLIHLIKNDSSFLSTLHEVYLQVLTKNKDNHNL", "UniProt Q7YS99": "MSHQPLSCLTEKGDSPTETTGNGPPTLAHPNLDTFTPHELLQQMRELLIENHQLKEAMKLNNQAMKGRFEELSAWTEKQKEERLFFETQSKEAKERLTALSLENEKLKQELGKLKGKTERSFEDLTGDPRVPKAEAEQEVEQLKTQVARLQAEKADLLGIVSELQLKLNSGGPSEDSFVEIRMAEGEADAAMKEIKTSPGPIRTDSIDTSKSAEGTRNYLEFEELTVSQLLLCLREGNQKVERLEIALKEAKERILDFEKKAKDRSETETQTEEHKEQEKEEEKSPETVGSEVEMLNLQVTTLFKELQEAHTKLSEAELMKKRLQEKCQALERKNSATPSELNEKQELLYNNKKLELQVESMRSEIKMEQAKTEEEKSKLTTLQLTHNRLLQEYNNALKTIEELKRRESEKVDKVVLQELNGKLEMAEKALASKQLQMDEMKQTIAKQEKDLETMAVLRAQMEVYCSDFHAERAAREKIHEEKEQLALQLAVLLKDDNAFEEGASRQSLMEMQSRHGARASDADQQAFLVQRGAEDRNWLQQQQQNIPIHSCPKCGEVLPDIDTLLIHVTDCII"},
  "source": "paper PMC11869656",
  "target": "myc-tagged pig mRNA decapping enzyme 1A (DCP1A), full length (pig) (UniProt I3LHS8)",
  "test": "co-IP; BHK-21 cells cotransfected with myc-tagged DCP1A (or its truncations) and GFP-tagged SVV proteins or HA-tagged autophagy receptors; lysed at 24 hpt; anti-myc magnetic beads overnight; western blotting with anti-myc, anti-HA, anti-GFP",
  "note": "Results are given in words; binding and its absence hold for the method and conditions named. Binding seen in cells or lysates may run through a third protein. Some results given as binding are weak or reduced against the parent protein; the word gives no strength.",
  "data": [
    {"substance": "HA-tagged OPTN (optineurin) (from UniProt Q7YS99 1-574)", "values": [
      {"measurement": "binding", "value": "binds"}
    ]}
  ]
}
